Reference: paper PMC8938454
No constants are given. Whether binding was seen depends on the method and setting. For part of these data: In cells and extracts the contact can be indirect. Some binding calls cover weakened binding; strength is not graded here. For part of these data: Sequences can lack the tags named with a protein.

Amino acid sequences for entries named in this document (tags omitted).
UniProt P51149: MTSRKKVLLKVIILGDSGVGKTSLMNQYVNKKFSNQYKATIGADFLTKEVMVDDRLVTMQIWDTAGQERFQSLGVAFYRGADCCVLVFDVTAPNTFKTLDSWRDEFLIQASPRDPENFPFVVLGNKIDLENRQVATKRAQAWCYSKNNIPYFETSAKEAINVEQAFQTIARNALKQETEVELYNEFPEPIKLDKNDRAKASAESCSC

T1: JIP4/SPAG9 scaffolding protein, endogenous in HEK293T (human (endogenous in HEK293T)) (UniProt O60271)
T1 sequence: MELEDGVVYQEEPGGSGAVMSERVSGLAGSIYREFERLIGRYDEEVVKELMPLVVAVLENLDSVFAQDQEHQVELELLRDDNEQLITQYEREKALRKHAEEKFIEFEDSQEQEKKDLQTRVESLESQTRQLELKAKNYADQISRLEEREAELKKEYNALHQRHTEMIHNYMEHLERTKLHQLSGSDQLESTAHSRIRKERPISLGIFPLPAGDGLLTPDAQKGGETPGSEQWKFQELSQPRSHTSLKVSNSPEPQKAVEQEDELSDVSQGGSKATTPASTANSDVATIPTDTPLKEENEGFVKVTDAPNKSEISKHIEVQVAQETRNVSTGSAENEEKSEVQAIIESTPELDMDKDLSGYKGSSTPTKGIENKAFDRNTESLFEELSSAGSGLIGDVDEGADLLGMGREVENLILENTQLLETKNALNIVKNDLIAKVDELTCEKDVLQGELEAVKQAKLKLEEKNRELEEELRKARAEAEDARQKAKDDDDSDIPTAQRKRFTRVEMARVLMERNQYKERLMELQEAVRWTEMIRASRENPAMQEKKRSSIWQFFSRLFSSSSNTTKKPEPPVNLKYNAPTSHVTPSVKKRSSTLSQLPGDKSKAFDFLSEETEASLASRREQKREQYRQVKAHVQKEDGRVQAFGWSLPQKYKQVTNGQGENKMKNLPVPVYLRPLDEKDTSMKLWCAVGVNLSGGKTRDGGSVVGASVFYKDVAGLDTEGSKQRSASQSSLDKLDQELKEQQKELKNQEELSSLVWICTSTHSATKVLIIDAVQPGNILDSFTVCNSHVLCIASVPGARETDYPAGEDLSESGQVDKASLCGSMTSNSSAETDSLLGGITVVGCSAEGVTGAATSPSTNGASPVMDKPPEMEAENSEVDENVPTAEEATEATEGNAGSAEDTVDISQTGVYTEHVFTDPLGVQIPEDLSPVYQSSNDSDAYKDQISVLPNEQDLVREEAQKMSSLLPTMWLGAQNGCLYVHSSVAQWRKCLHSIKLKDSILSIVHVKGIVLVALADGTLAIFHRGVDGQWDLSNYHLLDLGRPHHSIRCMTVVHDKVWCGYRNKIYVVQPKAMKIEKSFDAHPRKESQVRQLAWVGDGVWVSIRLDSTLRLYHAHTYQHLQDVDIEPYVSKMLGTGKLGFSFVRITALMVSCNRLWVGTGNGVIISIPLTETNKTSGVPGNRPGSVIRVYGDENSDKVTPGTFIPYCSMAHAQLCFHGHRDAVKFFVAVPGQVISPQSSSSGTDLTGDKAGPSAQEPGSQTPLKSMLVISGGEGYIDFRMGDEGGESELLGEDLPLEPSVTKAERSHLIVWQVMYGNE

T2: RUFY3, endogenous in HEK293T (human (endogenous in HEK293T)) (UniProt Q7L099)
T2 sequence: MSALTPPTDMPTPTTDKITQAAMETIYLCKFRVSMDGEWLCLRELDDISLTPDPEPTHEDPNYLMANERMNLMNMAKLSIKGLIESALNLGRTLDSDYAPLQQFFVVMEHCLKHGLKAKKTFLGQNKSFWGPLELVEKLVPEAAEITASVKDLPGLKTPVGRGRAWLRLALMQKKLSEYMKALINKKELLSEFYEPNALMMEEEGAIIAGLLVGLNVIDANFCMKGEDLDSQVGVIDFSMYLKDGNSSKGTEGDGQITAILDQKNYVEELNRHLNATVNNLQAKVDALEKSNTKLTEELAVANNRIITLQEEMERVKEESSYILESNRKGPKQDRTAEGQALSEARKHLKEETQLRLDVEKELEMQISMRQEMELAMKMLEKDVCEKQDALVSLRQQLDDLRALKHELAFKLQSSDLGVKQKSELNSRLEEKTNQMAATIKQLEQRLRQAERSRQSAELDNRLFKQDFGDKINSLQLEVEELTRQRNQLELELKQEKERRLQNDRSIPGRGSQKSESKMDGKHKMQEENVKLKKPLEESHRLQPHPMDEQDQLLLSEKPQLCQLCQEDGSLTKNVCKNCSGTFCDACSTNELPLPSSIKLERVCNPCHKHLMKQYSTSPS

T3: GST-tagged-RUFY3 (WT) (human) (UniProt Q7L099)
T3 sequence: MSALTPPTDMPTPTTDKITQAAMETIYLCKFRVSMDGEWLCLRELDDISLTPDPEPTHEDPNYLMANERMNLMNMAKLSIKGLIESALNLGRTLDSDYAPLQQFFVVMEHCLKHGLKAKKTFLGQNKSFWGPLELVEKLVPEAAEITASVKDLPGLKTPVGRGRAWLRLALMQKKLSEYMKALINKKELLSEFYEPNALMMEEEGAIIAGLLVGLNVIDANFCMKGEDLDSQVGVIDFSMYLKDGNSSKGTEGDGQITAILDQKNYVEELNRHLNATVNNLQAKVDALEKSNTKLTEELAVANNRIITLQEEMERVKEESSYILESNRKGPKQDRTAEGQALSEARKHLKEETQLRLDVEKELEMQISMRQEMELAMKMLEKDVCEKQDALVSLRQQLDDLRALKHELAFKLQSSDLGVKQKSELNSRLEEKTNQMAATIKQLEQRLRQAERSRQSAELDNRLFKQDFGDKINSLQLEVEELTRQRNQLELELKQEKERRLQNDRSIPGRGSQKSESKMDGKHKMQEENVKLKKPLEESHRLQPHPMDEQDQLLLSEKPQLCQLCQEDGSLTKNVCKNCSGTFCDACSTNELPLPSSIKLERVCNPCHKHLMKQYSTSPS


Key:
[1] = target: T1, JIP4/SPAG9 scaffolding protein, endogenous in HEK293T (human (endogenous in HEK293T)); assay: co-IP; endogenous IP from HEK293T cell lysates with antibody-conjugated resin (anti-Arl8, anti-RUFY3 or anti-JIP4; mouse IgG resin as control); in Fig. 5l cells treated with control or RUFY3 siRNA
[2] = target: T2, RUFY3, endogenous in HEK293T (human (endogenous in HEK293T)); assay: as above
[3] = target: T3, GST-tagged-RUFY3 (WT) (human); assay: pull-down; GST or GST-RUFY3 on glutathione beads incubated with semi-purified FLAG-JIP4 (eluted from anti-FLAG beads) in NP-40 buffer; blot with anti-FLAG; both purified
[4] = target: Rab7, yeast two-hybrid fusion (UniProt P51149); assay: two-hybrid; small-scale assay: GAL4-AD and GAL4-BD fusion plasmids co-transformed in S. cerevisiae Y2HGold; spotted on -Leu/-Trp (viability) and -Leu/-Trp/-His (interaction), 30 °C

Molecule | binding [1] | binding [2] | further results
dynactin 1/p150glued (DCTN1), endogenous in HEK293T (from UniProt Q14203-1 1-1278) | binds | binds | 
FLAG-tagged-JIP4, semi-purified (protein, UniProt O60271 1-1321) MELEDGVVYQEEPGGSGAVMSERVSGLAGSIYREFERLIGRYDEEVVKELMPLVVAVLENLDSVFAQDQEHQVELELLRDDNEQLITQYEREKALRKHAEEKFIEFEDSQEQEKKDLQTRVESLESQTRQLELKAKNYADQISRLEEREAELKKEYNALHQRHTEMIHNYMEHLERTKLHQLSGSDQLESTAHSRIRKERPISLGIFPLPAGDGLLTPDAQKGGETPGSEQWKFQELSQPRSHTSLKVSNSPEPQKAVEQEDELSDVSQGGSKATTPASTANSDVATIPTDTPLKEENEGFVKVTDAPNKSEISKHIEVQVAQETRNVSTGSAENEEKSEVQAIIESTPELDMDKDLSGYKGSSTPTKGIENKAFDRNTESLFEELSSAGSGLIGDVDEGADLLGMGREVENLILENTQLLETKNALNIVKNDLIAKVDELTCEKDVLQGELEAVKQAKLKLEEKNRELEEELRKARAEAEDARQKAKDDDDSDIPTAQRKRFTRVEMARVLMERNQYKERLMELQEAVRWTEMIRASRENPAMQEKKRSSIWQFFSRLFSSSSNTTKKPEPPVNLKYNAPTSHVTPSVKKRSSTLSQLPGDKSKAFDFLSEETEASLASRREQKREQYRQVKAHVQKEDGRVQAFGWSLPQKYKQVTNGQGENKMKNLPVPVYLRPLDEKDTSMKLWCAVGVNLSGGKTRDGGSVVGASVFYKDVAGLDTEGSKQRSASQSSLDKLDQELKEQQKELKNQEELSSLVWICTSTHSATKVLIIDAVQPGNILDSFTVCNSHVLCIASVPGARETDYPAGEDLSESGQVDKASLCGSMTSNSSAETDSLLGGITVVGCSAEGVTGAATSPSTNGASPVMDKPPEMEAENSEVDENVPTAEEATEATEGNAGSAEDTVDISQTGVYTEHVFTDPLGVQIPEDLSPVYQSSNDSDAYKDQISVLPNEQDLVREEAQKMSSLLPTMWLGAQNGCLYVHSSVAQWRKCLHSIKLKDSILSIVHVKGIVLVALADGTLAIFHRGVDGQWDLSNYHLLDLGRPHHSIRCMTVVHDKVWCGYRNKIYVVQPKAMKIEKSFDAHPRKESQVRQLAWVGDGVWVSIRLDSTLRLYHAHTYQHLQDVDIEPYVSKMLGTGKLGFSFVRITALMVSCNRLWVGTGNGVIISIPLTETNKTSGVPGNRPGSVIRVYGDENSDKVTPGTFIPYCSMAHAQLCFHGHRDAVKFFVAVPGQVISPQSSSSGTDLTGDKAGPSAQEPGSQTPLKSMLVISGGEGYIDFRMGDEGGESELLGEDLPLEPSVTKAERSHLIVWQVMYGNE |  |  | binding [3]: binds
JIP4/SPAG9 scaffolding protein, endogenous in HEK293T (protein, UniProt O60271 1-1321) MELEDGVVYQEEPGGSGAVMSERVSGLAGSIYREFERLIGRYDEEVVKELMPLVVAVLENLDSVFAQDQEHQVELELLRDDNEQLITQYEREKALRKHAEEKFIEFEDSQEQEKKDLQTRVESLESQTRQLELKAKNYADQISRLEEREAELKKEYNALHQRHTEMIHNYMEHLERTKLHQLSGSDQLESTAHSRIRKERPISLGIFPLPAGDGLLTPDAQKGGETPGSEQWKFQELSQPRSHTSLKVSNSPEPQKAVEQEDELSDVSQGGSKATTPASTANSDVATIPTDTPLKEENEGFVKVTDAPNKSEISKHIEVQVAQETRNVSTGSAENEEKSEVQAIIESTPELDMDKDLSGYKGSSTPTKGIENKAFDRNTESLFEELSSAGSGLIGDVDEGADLLGMGREVENLILENTQLLETKNALNIVKNDLIAKVDELTCEKDVLQGELEAVKQAKLKLEEKNRELEEELRKARAEAEDARQKAKDDDDSDIPTAQRKRFTRVEMARVLMERNQYKERLMELQEAVRWTEMIRASRENPAMQEKKRSSIWQFFSRLFSSSSNTTKKPEPPVNLKYNAPTSHVTPSVKKRSSTLSQLPGDKSKAFDFLSEETEASLASRREQKREQYRQVKAHVQKEDGRVQAFGWSLPQKYKQVTNGQGENKMKNLPVPVYLRPLDEKDTSMKLWCAVGVNLSGGKTRDGGSVVGASVFYKDVAGLDTEGSKQRSASQSSLDKLDQELKEQQKELKNQEELSSLVWICTSTHSATKVLIIDAVQPGNILDSFTVCNSHVLCIASVPGARETDYPAGEDLSESGQVDKASLCGSMTSNSSAETDSLLGGITVVGCSAEGVTGAATSPSTNGASPVMDKPPEMEAENSEVDENVPTAEEATEATEGNAGSAEDTVDISQTGVYTEHVFTDPLGVQIPEDLSPVYQSSNDSDAYKDQISVLPNEQDLVREEAQKMSSLLPTMWLGAQNGCLYVHSSVAQWRKCLHSIKLKDSILSIVHVKGIVLVALADGTLAIFHRGVDGQWDLSNYHLLDLGRPHHSIRCMTVVHDKVWCGYRNKIYVVQPKAMKIEKSFDAHPRKESQVRQLAWVGDGVWVSIRLDSTLRLYHAHTYQHLQDVDIEPYVSKMLGTGKLGFSFVRITALMVSCNRLWVGTGNGVIISIPLTETNKTSGVPGNRPGSVIRVYGDENSDKVTPGTFIPYCSMAHAQLCFHGHRDAVKFFVAVPGQVISPQSSSSGTDLTGDKAGPSAQEPGSQTPLKSMLVISGGEGYIDFRMGDEGGESELLGEDLPLEPSVTKAERSHLIVWQVMYGNE |  | binds | 
RUFY3, endogenous in HEK293T (protein, UniProt Q7L099-3 1-620) MSALTPPTDMPTPTTDKITQAAMETIYLCKFRVSMDGEWLCLRELDDISLTPDPEPTHEDPNYLMANERMNLMNMAKLSIKGLIESALNLGRTLDSDYAPLQQFFVVMEHCLKHGLKAKKTFLGQNKSFWGPLELVEKLVPEAAEITASVKDLPGLKTPVGRGRAWLRLALMQKKLSEYMKALINKKELLSEFYEPNALMMEEEGAIIAGLLVGLNVIDANFCMKGEDLDSQVGVIDFSMYLKDGNSSKGTEGDGQITAILDQKNYVEELNRHLNATVNNLQAKVDALEKSNTKLTEELAVANNRIITLQEEMERVKEESSYILESNRKGPKQDRTAEGQALSEARKHLKEETQLRLDVEKELEMQISMRQEMELAMKMLEKDVCEKQDALVSLRQQLDDLRALKHELAFKLQSSDLGVKQKSELNSRLEEKTNQMAATIKQLEQRLRQAERSRQSAELDNRLFKQDFGDKINSLQLEVEELTRQRNQLELELKQEKERRLQNDRSIPGRGSQKSESKMDGKHKMQEENVKLKKPLEESHRLQPHPMDEQDQLLLSEKPQLCQLCQEDGSLTKNVCKNCSGTFCDACSTNELPLPSSIKLERVCNPCHKHLMKQYSTSPS | binds |  | 
RUN and FYVE domain-containing protein 3 (RUFY3), transcript variant 1, yeast two-hybrid fusion (protein, UniProt Q7L099-3 1-620) MSALTPPTDMPTPTTDKITQAAMETIYLCKFRVSMDGEWLCLRELDDISLTPDPEPTHEDPNYLMANERMNLMNMAKLSIKGLIESALNLGRTLDSDYAPLQQFFVVMEHCLKHGLKAKKTFLGQNKSFWGPLELVEKLVPEAAEITASVKDLPGLKTPVGRGRAWLRLALMQKKLSEYMKALINKKELLSEFYEPNALMMEEEGAIIAGLLVGLNVIDANFCMKGEDLDSQVGVIDFSMYLKDGNSSKGTEGDGQITAILDQKNYVEELNRHLNATVNNLQAKVDALEKSNTKLTEELAVANNRIITLQEEMERVKEESSYILESNRKGPKQDRTAEGQALSEARKHLKEETQLRLDVEKELEMQISMRQEMELAMKMLEKDVCEKQDALVSLRQQLDDLRALKHELAFKLQSSDLGVKQKSELNSRLEEKTNQMAATIKQLEQRLRQAERSRQSAELDNRLFKQDFGDKINSLQLEVEELTRQRNQLELELKQEKERRLQNDRSIPGRGSQKSESKMDGKHKMQEENVKLKKPLEESHRLQPHPMDEQDQLLLSEKPQLCQLCQEDGSLTKNVCKNCSGTFCDACSTNELPLPSSIKLERVCNPCHKHLMKQYSTSPS |  |  | binding [4]: no binding
